# This is one part of the list.
# B1: Blon0732mut (Bifidobacterium longum) (protein)
# chain: MPTSEHKADDATRHLTLIPAPVTLEYTHGTALIGPLVTIEDADQSWETLPIEQLSDELRHRYGVTVLRRRTHGTVISLGLDSRLAHDEYTLDVSESEGIRVRGGGESGLRYGLQTLRQIIGQTSRAIPCLHIQDKPAFAVRAYSLDVTRGRVPTMEFLTWFVDQLALYKYNQFQLYVEHAFAFVELSEAWRGTDPLTAADITYLDEYCARRGIELVPSLATFGHMYMNLRTREHRGLGEFPEDADRPFSFIERMEHHTLNAADPKAHDFASRLIEEYAPLFRSKSFNIGGNETFDLGRGRSAQDAPEAGRDELYAGFVRDLCETLARHGRQPMLWADIALESPRTMDLLPGDITMLNWMYEPQIDESKIQTIATQGRRQFVCPAVRAWSRFFPDYAGAWLNTYHMALAGTKYDAEGMVVTDWGDYGHVNDPRLSVPGLCYGAQNAWNPIEIDAHEMNRRISALVYGDESGRIMDCLARIDSDGVSFPWDLAVQVLELEYGSGTGALNMDVAACMERSSGGKLTLDRTLGCDDARRRMLQWNRERIERRRDCDQVLRDCGDAFAGLDKGGLTAEFLSVMLDGQRLFNELGEELLALADGKDVGSGANRLAADLELWFERYRAQWLSVGRHAELARIAHVVWSLADILRRGAL
# Legend:
# Assay in all cases: glycan array binding signal (z-score within array); higher = stronger binding
# Settings in all cases: glycan notation: IUPAC condensed, linker removed
# Fuc(a1-2)Gal = target: Fuc(a1-2)Gal
# Outline: (§1)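 The Consortium for Functional Glycomics database supplied 3228 glycan arrays, of which those lacking an available protein sequence were dropped. The binding signal, a within-array Z-score, was averaged across arrays of the same protein sequence and across linkers. Negative scores can be read as non-binding.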
# Fuc(a1-2)Gal(b1-3)GalNAc = target: Fuc(a1-2)Gal(b1-3)GalNAc
# Outline: as §1
# [1] = target: Fuc(a1-2)Gal(b1-3)GalNAc(a1-3)[Fuc(a1-2)]Gal(b1-4)Glc
# Outline: as §1
# [2] = target: Fuc(a1-2)Gal(b1-3)GalNAc(a1-3)[Fuc(a1-2)]Gal(b1-4)GlcNAc
# Outline: as §1
# [3] = target: Fuc(a1-2)Gal(b1-3)GalNAc(b1-3)Gal
# Outline: as §1
# [4] = target: Fuc(a1-2)Gal(b1-3)GalNAc(b1-3)Gal(a1-4)Gal(b1-4)Glc
# Outline: as §1
# [5] = target: Fuc(a1-2)Gal(b1-3)GalNAc(b1-4)[Neu5Ac(a2-3)]Gal(b1-4)Glc
# Outline: as §1
# Fuc(a1-2)Gal(b1-3)GlcNAc = target: Fuc(a1-2)Gal(b1-3)GlcNAc
# Outline: as §1
# [6] = target: Fuc(a1-2)Gal(b1-3)GlcNAc(b1-2)Man(a1-3)[Fuc(a1-2)Gal(b1-3)GlcNAc(b1-2)Man(a1-6)]Man(b1-4)GlcNAc(b1-4)GlcNAc
# Outline: as §1
# [7] = target: Fuc(a1-2)Gal(b1-3)GlcNAc(b1-2)Man(a1-3)[Fuc(a1-2)Gal(b1-3)GlcNAc(b1-2)Man(a1-6)]Man(b1-4)GlcNAc(b1-4)[Fuc(a1-6)]GlcNAc
# Outline: as §1
# [8] = target: Fuc(a1-2)Gal(b1-3)GlcNAc(b1-3)Gal(b1-4)Glc
# Outline: as §1
# [9] = target: Fuc(a1-2)Gal(b1-3)GlcNAc(b1-3)GalNAc
# Outline: as §1
# [10] = target: Fuc(a1-2)Gal(b1-3)GlcNAc(b1-3)[Fuc(a1-2)Gal(b1-3)GlcNAc(b1-6)]GalNAc
# Outline: as §1
# [11] = target: Fuc(a1-2)Gal(b1-3)GlcNAc(b1-3)[Gal(b1-4)GlcNAc(b1-6)]Gal(b1-4)Glc
# Outline: as §1
# [12] = target: Fuc(a1-2)Gal(b1-3)GlcNAc(b1-3)[Neu5Ac(a2-6)Gal(b1-4)GlcNAc(b1-6)]Gal(b1-4)Glc
# Outline: as §1
# [13] = target: Fuc(a1-2)Gal(b1-3)GlcNAc6S
# Outline: as §1
# [14] = target: Fuc(a1-2)Gal(b1-3)[Fuc(a1-4)]GlcNAc
# Outline: as §1
# [15] = target: Fuc(a1-2)Gal(b1-3)[Fuc(a1-4)]GlcNAc(b1-2)Man(a1-3)[Fuc(a1-2)Gal(b1-3)[Fuc(a1-4)]GlcNAc(b1-2)Man(a1-3)]Man(b1-4)GlcNAc(b1-4)GlcNAc
# Outline: as §1
# [16] = target: Fuc(a1-2)Gal(b1-3)[Fuc(a1-4)]GlcNAc(b1-2)Man(a1-3)[Fuc(a1-2)Gal(b1-3)[Fuc(a1-4)]GlcNAc(b1-2)Man(a1-6)]Man(b1-4)GlcNAc(b1-4)[Fuc(a1-6)]GlcNAc(b1-4)[Fuc(a1-6)]GlcNAc
# Outline: as §1
# [17] = target: Fuc(a1-2)Gal(b1-3)[Fuc(a1-4)]GlcNAc(b1-3)[Fuc(a1-3)[Gal(b1-4)]GlcNAc(b1-6)]Gal(b1-4)Glc
# Outline: as §1
# [18] = target: Fuc(a1-2)Gal(b1-3)[Fuc(a1-4)]GlcNAc(b1-3)[Gal(b1-4)GlcNAc(b1-6)]Gal(b1-4)Glc
# Outline: as §1
# Fuc(a1-2)Gal(b1-4)Glc = target: Fuc(a1-2)Gal(b1-4)Glc
# Outline: as §1
# Fuc(a1-2)Gal(b1-4)Glc6S = target: Fuc(a1-2)Gal(b1-4)Glc6S
# Outline: as §1
# Fuc(a1-2)Gal(b1-4)GlcNAc = target: Fuc(a1-2)Gal(b1-4)GlcNAc
# Outline: as §1
# [19] = target: Fuc(a1-2)Gal(b1-4)GlcNAc(b1-2)Man
# Outline: as §1
# [20] = target: Fuc(a1-2)Gal(b1-4)GlcNAc(b1-2)Man(a1-3)[Fuc(a1-2)Gal(b1-4)GlcNAc(b1-2)Man(a1-6)]Man(b1-4)GlcNAc(b1-4)GlcNAc
# Outline: as §1
# [21] = target: Fuc(a1-2)Gal(b1-4)GlcNAc(b1-2)Man(a1-3)[Fuc(a1-2)Gal(b1-4)GlcNAc(b1-2)Man(a1-6)]Man(b1-4)GlcNAc(b1-4)[Fuc(a1-6)]GlcNAc
# Outline: as §1
# [22] = target: Fuc(a1-2)Gal(b1-4)GlcNAc(b1-2)[Fuc(a1-2)Gal(b1-4)GlcNAc(b1-4)]Man(a1-3)[Fuc(a1-2)Gal(b1-4)GlcNAc(b1-2)Man(a1-6)]Man(b1-4)GlcNAc(b1-4)GlcNAc
# Outline: as §1
# [23] = target: Fuc(a1-2)Gal(b1-4)GlcNAc(b1-3)Gal(b1-4)GlcNAc
# Outline: as §1
# [24] = target: Fuc(a1-2)Gal(b1-4)GlcNAc(b1-3)Gal(b1-4)GlcNAc(b1-2)Man(a1-3)[Fuc(a1-2)Gal(b1-4)GlcNAc(b1-3)Gal(b1-4)GlcNAc(b1-2)Man(a1-6)]Man(b1-4)GlcNAc(b1-4)GlcNAc
# Outline: as §1
binder,measurement,setting,value
B1,glycan array binding signal (z-score),Fuc(a1-2)Gal,0.288
same,glycan array binding signal (z-score),Fuc(a1-2)Gal(b1-3)GalNAc,-0.563
same,glycan array binding signal (z-score),[1],-0.382
same,glycan array binding signal (z-score),[2],0.027
same,glycan array binding signal (z-score),[3],-1.26
same,glycan array binding signal (z-score),[4],0.475
same,glycan array binding signal (z-score),[5],0.478
same,glycan array binding signal (z-score),Fuc(a1-2)Gal(b1-3)GlcNAc,0.16
same,glycan array binding signal (z-score),[6],0.392
same,glycan array binding signal (z-score),[7],0.26
same,glycan array binding signal (z-score),[8],-0.262
same,glycan array binding signal (z-score),[9],-0.227
same,glycan array binding signal (z-score),[10],-0.488
same,glycan array binding signal (z-score),[11],-1.19
same,glycan array binding signal (z-score),[12],0.027
same,glycan array binding signal (z-score),[13],0.454
same,glycan array binding signal (z-score),[14],0.087
same,glycan array binding signal (z-score),[15],-0.129
same,glycan array binding signal (z-score),[16],0.926
same,glycan array binding signal (z-score),[17],-0.7
same,glycan array binding signal (z-score),[18],-0.87
same,glycan array binding signal (z-score),Fuc(a1-2)Gal(b1-4)Glc,1.45
same,glycan array binding signal (z-score),Fuc(a1-2)Gal(b1-4)Glc6S,-0.346
same,glycan array binding signal (z-score),Fuc(a1-2)Gal(b1-4)GlcNAc,-0.24
same,glycan array binding signal (z-score),[19],-1.24
same,glycan array binding signal (z-score),[20],0.043
same,glycan array binding signal (z-score),[21],-0.552
same,glycan array binding signal (z-score),[22],-0.691
same,glycan array binding signal (z-score),[23],-0.351
same,glycan array binding signal (z-score),[24],-0.325

# A second format for part of the listing above.
binder	measurement	setting	value
B1	glycan array binding signal (z-score)	Fuc(a1-2)Gal(b1-3)GalNAc	-0.563
same	glycan array binding signal (z-score)	[1]	-0.382

# From the supplement of paper PMC8728848
